For assay [1], the target named is GST–N-Myc recombinant protein (UniProt P04198). In words: pull-down; in vitro competition: recombinant GST or GST–N-Myc preincubated with KLHL37-His at RT, then with lysate of HEK-293T overexpressing FBXW7-HA at 4°C overnight; IP with GST resin; only the target purified.
In assay [2] the target is endogenous N-Myc (human (endogenous in SK-N-BE(2))) (UniProt P04198). In words: co-IP; cells (not named) transfected 48 hours to overexpress KLHL37; interaction of endogenous N-Myc and FBXW7 by co-IP and immunoblotting. On the technique in general: In western blotting, separated proteins are transferred to a membrane and probed.

Protein sequences, listed by entry. Tags and fused reporters are not part of them.
UniProt P04198: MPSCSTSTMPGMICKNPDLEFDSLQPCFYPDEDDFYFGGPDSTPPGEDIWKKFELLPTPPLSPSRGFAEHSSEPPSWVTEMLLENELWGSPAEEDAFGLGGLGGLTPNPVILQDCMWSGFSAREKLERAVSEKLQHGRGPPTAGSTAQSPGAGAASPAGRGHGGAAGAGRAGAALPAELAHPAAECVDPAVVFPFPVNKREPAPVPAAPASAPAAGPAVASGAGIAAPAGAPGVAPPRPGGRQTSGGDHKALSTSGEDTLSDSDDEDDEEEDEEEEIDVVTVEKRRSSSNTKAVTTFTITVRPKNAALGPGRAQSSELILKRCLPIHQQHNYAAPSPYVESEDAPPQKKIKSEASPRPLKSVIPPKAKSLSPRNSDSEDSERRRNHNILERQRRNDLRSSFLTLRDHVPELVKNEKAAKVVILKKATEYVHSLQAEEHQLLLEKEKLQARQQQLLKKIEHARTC
UniProt Q969H0: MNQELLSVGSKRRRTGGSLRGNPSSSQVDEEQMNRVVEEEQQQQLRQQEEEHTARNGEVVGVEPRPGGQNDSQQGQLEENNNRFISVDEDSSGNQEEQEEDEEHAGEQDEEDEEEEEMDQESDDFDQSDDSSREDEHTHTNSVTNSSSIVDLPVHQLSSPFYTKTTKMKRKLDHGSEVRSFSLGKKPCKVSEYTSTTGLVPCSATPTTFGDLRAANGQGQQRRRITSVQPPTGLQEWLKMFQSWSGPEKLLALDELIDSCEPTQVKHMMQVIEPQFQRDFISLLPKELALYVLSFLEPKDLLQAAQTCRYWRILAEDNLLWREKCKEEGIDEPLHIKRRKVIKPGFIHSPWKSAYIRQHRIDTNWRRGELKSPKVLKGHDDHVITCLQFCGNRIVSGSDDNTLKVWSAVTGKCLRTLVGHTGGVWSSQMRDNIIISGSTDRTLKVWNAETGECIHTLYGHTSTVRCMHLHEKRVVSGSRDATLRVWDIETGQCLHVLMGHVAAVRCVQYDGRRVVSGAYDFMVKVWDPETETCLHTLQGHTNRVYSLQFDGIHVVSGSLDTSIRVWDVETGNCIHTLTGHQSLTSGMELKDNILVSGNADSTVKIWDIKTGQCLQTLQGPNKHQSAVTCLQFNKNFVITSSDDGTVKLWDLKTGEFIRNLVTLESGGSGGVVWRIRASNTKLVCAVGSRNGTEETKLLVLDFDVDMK

These are yes or no findings as the source states them, for the method shown. Binding seen in cells or lysates may run through a third protein. Some binding calls cover weakened binding; strength is not graded here.

The source of these data is article PMC12259267, “Disruption of the KLHL37–N-Myc complex restores N-Myc degradation and arrests neuroblastoma growth in mouse models” (The Journal of Clinical Investigation, 2025).

FBXW7-HA (from UniProt Q969H0 1-707): the binding entry in assay [1] is “binds”. “endogenous FBXW7 (from UniProt Q969H0 1-707)”: the binding entry in assay [2] is listed as “binds”.
